# Small-molecule microarray binding calls

Source: the ROBIN nucleic acid binder screens (doi:10.1002/anie.202211358).

Targets (5′ to 3′):
PreQ1: PreQ1 riboswitch RNA pseudoknot, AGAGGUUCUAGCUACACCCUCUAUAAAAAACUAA. From B. subtilis. About 170 hits among about 24,000 compounds.
SAM-II: SAM-II riboswitch RNA pseudoknot, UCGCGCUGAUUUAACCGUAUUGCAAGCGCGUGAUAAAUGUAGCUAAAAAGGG. About 200 hits among about 21,000 compounds.

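Compounds were printed on reactive glass slides in duplicate spots, a dye-labelled oligonucleotide was laid over them, and the fluorescence left after washing was read. For the PreQ1, TPP and SAM-II riboswitches the laboratory earlier reported (doi:10.1038/s41467-019-09493-3) 1 µM RNA, 2 h, and a rule that included a mean Z-score above 3 (spot signal-to-noise against the whole library), a score well above that on a control array, and duplicate spots agreeing (coefficient of variation under 100). The data file gives only the calls; its cut-offs may differ, and compounds hitting several targets are kept. The calls come from the array alone, and fixing a compound to the slide can hide its binding.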
A compound is marked active if it was called a hit and inactive if it was screened but was not.
Compounds were drawn at random from those tested, without regard to their results.
A target missing from an entry has no call listed here.

Calls for CC1(C)Cc2nc3sc4c(NCC5CCCO5)ncnc4c3cc2CO1 (stereo unspecified) are PreQ1: inactive; SAM-II: inactive.
Calls for N[C@@H](Cc1c[nH]cn1)c1nc(Cn2cncn2)nn1-c1ccccc1Cl are PreQ1: inactive; SAM-II: inactive.
Calls for CC(=O)O.COc1ccc2nccc(/C=C/c3ccnc4ccc(OC)cc34)c2c1 are PreQ1: inactive; SAM-II: inactive.
Calls for Cc1ccc(N2CCCn3c2nc2c3c(=O)n(CCCO)c(=O)n2C)cc1 are PreQ1: inactive.
Calls for CC(NS(=O)(=O)c1ccc(N)cc1)c1ccccc1 (stereo unspecified) are PreQ1: inactive; SAM-II: inactive.
Calls for Cc1cc(C)c(C#N)c(N2CCN(CCO)CC2)n1 are PreQ1: inactive; SAM-II: inactive.
Calls for O=S(=O)(c1ccc2nc(NCc3ccccc3Cl)cnc2c1)N1CCCCC1 are PreQ1: inactive; SAM-II: inactive.
Calls for O=C(C1=C(NC2CC2)c2ccccc2S1(=O)=O)N1CCOCC1 are PreQ1: inactive.
Calls for O=C(CCO)N(CC1CCN(Cc2ccccc2F)CC1)CC1CCCO1 (stereo unspecified) are PreQ1: inactive; SAM-II: inactive.
Calls for NCCN1CCC(O)CC1 are PreQ1: inactive; SAM-II: inactive.
Calls for Cc1cc(C2C(C#N)=C(N)N(c3ccc(F)cc3)C3=C2C(=O)CCC3)c(C)s1 (stereo unspecified) are PreQ1: inactive; SAM-II: inactive.
Calls for Br.NCC(c1ccccc1)C1CCCC1 (stereo unspecified) are PreQ1: inactive; SAM-II: inactive.
Calls for C[C@@H](Oc1cc(-n2cnc3ccc(CN4CCN(C)CC4)cc32)sc1C(N)=O)c1ccccc1C(F)(F)F are PreQ1: inactive; SAM-II: inactive.
Calls for CC1CCc2sc3ncnc(NCCN4CCOCC4)c3c2C1 (stereo unspecified) are PreQ1: inactive; SAM-II: inactive.
Calls for COc1ccccc1CNc1ncccc1-c1nc(-c2ccccc2)no1 are PreQ1: inactive.
Calls for CCc1ccc(CNc2ncc3nc(-c4ccccc4)oc3n2)cc1 are PreQ1: inactive; SAM-II: inactive.
Calls for O=S1(=O)C[C@H](NCc2ccc(F)cc2)[C@@H](S(=O)(=O)c2ccc(F)cc2)C1 are PreQ1: inactive.
Calls for CCOC(=O)c1sc2nc(C)nc(Nc3ccc(OC)c(OC)c3)c2c1C are PreQ1: inactive; SAM-II: inactive.
Calls for Cc1ccccc1NC1CCCCC1NS(=O)(=O)c1ccc(Cl)cc1 (stereo unspecified) are PreQ1: inactive.
Calls for Nc1[nH]nc(NCc2ccccc2)c1C(=O)Nc1cccc(C(F)(F)F)c1 are PreQ1: inactive; SAM-II: inactive.
Calls for c1csc(-c2nc3cnccn3c2Nc2ccc3c(c2)OCCO3)c1 are PreQ1: inactive; SAM-II: inactive.
Calls for CCN(CC)CCNc1nc(C)nc2c1sc1nc3c(cc12)COC(C)(C)C3 are PreQ1: inactive; SAM-II: inactive.
Calls for Nc1ccc(Sc2ccc3ccccc3c2Cl)c(Cl)c1 are PreQ1: active; SAM-II: active.
Calls for Oc1ccccc1-c1nn(CNc2ccc(I)cc2)c(=S)o1 are PreQ1: inactive; SAM-II: inactive.
Calls for Cc1nc(N2CCN(C(=O)CN3CC(=O)NC3=O)CC(O)C2)no1 (stereo unspecified) are PreQ1: inactive; SAM-II: inactive.
Calls for Cc1c(S(=O)(=O)c2ccc(F)cc2)c(N)n(C(C)C)c1C are PreQ1: inactive; SAM-II: inactive.
Calls for CC1(C)CC2(C)OC2C2(C1)N=N/C(=N/c1ccccc1)O2 (stereo unspecified) are PreQ1: inactive; SAM-II: inactive.
Calls for Nc1c(C(=O)NCCc2c[nH]c3ccccc23)sc2nc(-c3ccccn3)ccc12 are PreQ1: active; SAM-II: inactive.
Calls for COc1ccc(C)cc1NC(=O)c1nnn(Cc2ccc(Br)cc2F)c1N are PreQ1: inactive; SAM-II: inactive.
Calls for COc1ccc(CNc2ccc(N3CCOCC3)cc2)cc1 are PreQ1: inactive; SAM-II: inactive.
Calls for Cc1cc2ncn(CC(O)COc3ccccc3C)c2cc1C (stereo unspecified) are PreQ1: inactive; SAM-II: inactive.
Calls for OCCn1nc(-c2cccnc2)nc1CSc1ccccn1 are PreQ1: inactive; SAM-II: inactive.
Calls for O=C(Cc1ccc(O)cc1)N1CCN(Cc2ccccc2CO)CC1 are PreQ1: inactive; SAM-II: inactive.
Calls for CCOC(=O)c1cccc(Nc2nc(C(=O)OCC)nc3ccccc23)c1 are PreQ1: inactive; SAM-II: inactive.
Calls for CCO[C@H]1C[C@@H](O)C12CCN(C(=O)Cc1nonc1C)CC2 are PreQ1: inactive; SAM-II: inactive.
Calls for CC(=O)C1=C(O)C(=O)N(CCO)C1c1ccccc1 (stereo unspecified) are PreQ1: inactive; SAM-II: inactive.
Calls for Cc1cc(C)n2nc(CNc3cccc(Cl)c3)nc2n1 are PreQ1: inactive.
Calls for COCCc1nc(-c2ccccc2-c2ccccc2)n(CCO)n1 are PreQ1: inactive; SAM-II: inactive.

For reference, 4 entries once more:

{"compound": "O=S(=O)(c1ccc2nc(NCc3ccccc3Cl)cnc2c1)N1CCCCC1", "PreQ1": "inactive", "SAM-II": "inactive"}
{"compound": "Cc1c(S(=O)(=O)c2ccc(F)cc2)c(N)n(C(C)C)c1C", "PreQ1": "inactive", "SAM-II": "inactive"}
{"compound": "c1csc(-c2nc3cnccn3c2Nc2ccc3c(c2)OCCO3)c1", "PreQ1": "inactive", "SAM-II": "inactive"}
{"compound": "COc1ccccc1CNc1ncccc1-c1nc(-c2ccccc2)no1", "PreQ1": "inactive"}